Where a chain is given by its changes, count along the chain named. Construct, isoform or probe ends are uncertain for at least one entry. For part of these data: Weaker means in comparison with the reference protein, sequence or condition of that experiment. For part of these data: At least one verdict rests on a figure or table, not on a statement of the authors. Where a protein sequence is shown, tags need not be part of it.
Assays:
Assay in all cases: EMSA
[1] = molecular target: T1, PANC27SC114SC154SC340S (Arabidopsis thaliana) (UniProt Q9SX27); details: with or without 0.9 or 20 mM DTT or 2 mM diamide, 30 min in the dark before probe addition, protein translated in vitro, residues 1-452, label: 5' 32P
T1 sequence (looked up): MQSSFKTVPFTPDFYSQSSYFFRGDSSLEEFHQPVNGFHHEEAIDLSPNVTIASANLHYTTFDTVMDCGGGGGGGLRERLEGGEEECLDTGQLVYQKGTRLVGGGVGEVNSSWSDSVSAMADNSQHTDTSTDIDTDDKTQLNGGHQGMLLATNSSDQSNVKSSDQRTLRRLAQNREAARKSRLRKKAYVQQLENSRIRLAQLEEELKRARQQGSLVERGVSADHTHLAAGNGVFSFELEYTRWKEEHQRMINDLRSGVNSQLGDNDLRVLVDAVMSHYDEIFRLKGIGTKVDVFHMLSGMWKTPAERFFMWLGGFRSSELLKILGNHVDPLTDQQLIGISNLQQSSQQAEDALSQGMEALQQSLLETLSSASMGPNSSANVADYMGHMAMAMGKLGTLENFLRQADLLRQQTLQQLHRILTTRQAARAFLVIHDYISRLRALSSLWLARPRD

[2] = molecular target: T2, PANC27SC68SC87SC114S (Arabidopsis thaliana) (UniProt Q9SX27); details: with or without 0.9 or 20 mM DTT or 2 mM diamide, 30 min in the dark before probe addition, protein translated in vitro, residues 1-452, label: 5' 32P
T2 sequence (looked up): T1 sequence (looked up) with C68S, C87S, S154C, S340C

[3] = molecular target: T3, PANC27SC68SC87SC114SC154S (Arabidopsis thaliana) (UniProt Q9SX27); details: 0.9 mM DTT; with or without 0.9 or 20 mM DTT or 2 mM diamide, 30 min in the dark before probe addition; protein translated in vitro; residues 1-452; label: 5' 32P
T3 sequence (looked up): T1 sequence (looked up) with C68S, C87S, S340C

[4] = molecular target: T4, PANC87S (Arabidopsis thaliana) (UniProt Q9SX27); details: with or without 0.9 or 20 mM DTT or 2 mM diamide, 30 min in the dark before probe addition, protein translated in vitro, residues 1-452, label: 5' 32P
T4 sequence (looked up): T1 sequence (looked up) with S27C, C87S, S114C, S154C, S340C

[5] = molecular target: T5, PANΔN del1-166 (Arabidopsis thaliana) (UniProt Q9SX27); details: 0.9 mM DTT; with or without 0.9 or 20 mM DTT or 2 mM diamide, 30 min in the dark before probe addition; protein translated in vitro; residues 167-452; label: 5' 32P
T5 sequence (looked up): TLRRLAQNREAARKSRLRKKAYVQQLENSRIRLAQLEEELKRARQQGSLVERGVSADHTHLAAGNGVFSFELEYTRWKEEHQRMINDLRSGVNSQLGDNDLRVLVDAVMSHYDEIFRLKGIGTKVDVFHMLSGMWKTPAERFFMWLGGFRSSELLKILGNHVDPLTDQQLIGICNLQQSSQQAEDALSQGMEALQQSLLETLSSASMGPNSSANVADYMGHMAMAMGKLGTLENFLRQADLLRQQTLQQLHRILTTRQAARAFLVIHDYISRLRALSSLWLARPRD

[6] = molecular target: T6, PERIANTHIA (PAN) (Arabidopsis thaliana) (UniProt Q9SX27); details: 2 mM diamide; with or without 0.9 or 20 mM DTT or 2 mM diamide, 30 min in the dark before probe addition; protein translated in vitro; residues 1-452; label: 5' 32P
T6 sequence (looked up): T1 sequence (looked up) with S27C, S114C, S154C, S340C

AAGAATCTTTGATCACGTCATCACTCAGATATT (double strand)
binding result ([1]; 0.9 mM DTT): binds | binding result ([1]; 2 mM diamide, weak decrease): binds more weakly | binding result ([2]; 0.9 mM DTT): binds | binding result ([2]; 2 mM diamide): binds more weakly | binding result [3]: binds | binding result ([4]; 0.9 mM DTT): binds | binding result ([4]; 2 mM diamide): binds more weakly | binding result [5]: binds | binding result [6]: binds more weakly

Reference: publication PMC4851370, “The N-Terminus of the Floral Arabidopsis TGA Transcription Factor PERIANTHIA Mediates Redox-Sensitive DNA-Binding”
